Data taken from publication PMC5084709.
These are yes or no findings as the source states them, for the method shown. Binding seen in cells or lysates may run through a third protein. A result given as binding can be weak or reduced; the word gives no strength.

Tests used:
[1] = biological target: Robo3-GFP fusion protein (Drosophila); test: co-IP; Robo3-GFP precipitated with anti-GFP conjugated beads (Chromotek) from RIPA lysates of S2 cells transfected with the RPTP69d constructs; in Figure 7A also with Slit supernatant added
[2] = biological target: Robo3-GFP fusion protein (Drosophila); test: co-IP; Slit from the supernatant of S2 stable-expressing cells added to transfected S2 cells 3 days after transfection, cells extracted six hours later; RIPA lysate; Robo3-GFP precipitated with anti-GFP conjugated beads

binding [1]	binding [2]	Binder
binds		RPTP69d full length (receptor, UniProt P16620 29-1462) SVKQEWAEIGKNVSLECASENEAVAWKLGNQTINKNHTRYKIRTEPLKSNDDGSENNDSQDFIKYKNVLALLDVNIKDSGNYTCTAQTGQNHSTEFQVRPYLPSKVLQSTPDRIKRKIKQDVMLYCLIEMYPQNETTNRNLKWLKDGSQFEFLDTFSSISKLNDTHLNFTLEFTEVYKKENGTYKCTVFDDTGLEITSKEITLFVMEVPQVSIDFAKAVGANKIYLNWTVNDGNDPIQKFFITLQEAGTPTFTYHKDFINGSHTSYILDHFKPNTTYFLRIVGKNSIGNGQPTQYPQGITTLSYDPIFIPKVETTGSTASTITIGWNPPPPDLIDYIQYYELIVSESGEVPKVIEEAIYQQNSRNLPYMFDKLKTATDYEFRVRACSDLTKTCGPWSENVNGTTMDGVATKPTNLSIQCHHDNVTRGNSIAINWDVPKTPNGKVVSYLIHLLGNPMSTVDREMWGPKIRRIDEPHHKTLYESVSPNTNYTVTVSAITRHKKNGEPATGSCLMPVSTPDAIGRTMWSKVNLDSKYVLKLYLPKISERNGPICCYRLYLVRINNDNKELPDPEKLNIATYQEVHSDNVTRSSAYIAEMISSKYFRPEIFLGDEKRFSENNDIIRDNDEICRKCLEGTPFLRKPEIIHIPPQGSLSNSDSELPILSEKDNLIKGANLTEHALKILESKLRDKRNAVTSDENPILSAVNPNVPLHDSSRDVFDGEIDINSNYTGFLEIIVRDRNNALMAYSKYFDIITPATEAEPIQSLNNMDYYLSIGVKAGAVLLGVILVFIVLWVFHHKKTKNELQGEDTLTLRDSLSRALFGRRNHNHSHFITSGNHKGFDAGPIHRLDLENAYKNRHKDTDYGFLREYEMLPNRFSDRTTKNSDLKENACKNRYPDIKAYDQTRVKLAVINGLQTTDYINANFVIGYKERKKFICAQGPMESTIDDFWRMIWEQHLEIIVMLTNLEEYNKAKCAKYWPEKVFDTKQFGDILVKFAQERKTGDYIERTLNVSKNKANVGEEEDRRQITQYHYLTWKDFMAPEHPHGIIKFIRQINSVYSLQRGPILVHCSAGVGRTGTLVALDSLIQQLEEEDSVSIYNTVCDLRHQRNFLVQSLKQYIFLYRALLDTGTFGNTDICIDTMASAIESLKRKPNEGKCKLEVEFEKLLATADEISKSCSVGENEENNMKNRSQEIIPYDRNRVILTPLPMRENSTYINASFIEGYDNSETFIIAQDPLENTIGDFWRMISEQSVTTLVMISEIGDGPRKCPRYWADDEVQYDHILVKYVHSESCPYYTRREFYVTNCKIDDTLKVTQFQYNGWPTVDGEVPEVCRGIIELVDQAYNHYKNNKNSGCRSPLTVHCSLGTDRSSIFVAMCILVQHLRLEKCVDICATTRKLRSQRTGLINSYAQYEFLHRAIINYSDLHHIAESTLD
	binds	Slit (ligand, UniProt P24014 37-1504) EPYSGGFGSSAVSSGGLGSVGIHIPGGGVGVITEARCPRVCSCTGLNVDCSHRGLTSVPRKISADVERLELQGNNLTVIYETDFQRLTKLRMLQLTDNQIHTIERNSFQDLVSLERLRLNNNRLKAIPENFVTSSASLLRLDISNNVITTVGRRVFKGAQSLRSLQLDNNQITCLDEHAFKGLVELEILTLNNNNLTSLPHNIFGGLGRLRALRLSDNPFACDCHLSWLSRFLRSATRLAPYTRCQSPSQLKGQNVADLHDQEFKCSGLTEHAPMECGAENSCPHPCRCADGIVDCREKSLTSVPVTLPDDTTELRLEQNFITELPPKSFSSFRRLRRIDLSNNNISRIAHDALSGLKQLTTLVLYGNKIKDLPSGVFKGLGSLQLLLLNANEISCIRKDAFRDLHSLSLLSLYDNNIQSLANGTFDAMKSIKTVHLAKNPFICDCNLRWLADYLHKNPIETSGARCESPKRMHRRRIESLREEKFKCSWDELRMKLSGECRMDSDCPAMCHCEGTTVDCTGRGLKEIPRDIPLHTTELLLNDNELGRISSDGLFGRLPHLVKLELKRNQLTGIEPNAFEGASHIQELQLGENKIKEISNKMFLGLHQLKTLNLYDNQISCVMPGSFEHLNSLTSLNLASNPFNCNCHLAWFAEWLRKKSLNGGAARCGAPSKVRDVQIKDLPHSEFKCSSENSEGCLGDGYCPPSCTCTGTVVRCSRNQLKEIPRGIPAETSELYLESNEIEQIHYERIRHLRSLTRLDLSNNQITILSNYTFANLTKLSTLIISYNKLQCLQRHALSGLNNLRVLSLHGNRISMLPEGSFEDLKSLTHIALGSNPLYCDCGLKWFSDWIKLDYVEPGIARCAEPEQMKDKLILSTPSSSFVCRGRVRNDILAKCNACFEQPCQNQAQCVALPQREYQCLCQPGYHGKHCEFMIDACYGNPCRNNATCTVLEEGRFSCQCAPGYTGARCETNIDDCLGEIKCQNNATCIDGVESYKCECQPGFSGEFCDTKIQFCSPEFNPCANGAKCMDHFTHYSCDCQAGFHGTNCTDNIDDCQNHMCQNGGTCVDGINDYQCRCPDDYTGKYCEGHNMISMMYPQTSPCQNHECKHGVCFQPNAQGSDYLCRCHPGYTGKWCEYLTSISFVHNNSFVELEPLRTRPEANVTIVFSSAEQNGILMYDGQDAHLAVELFNGRIRVSYDVGNHPVSTMYSFEMVADGKYHAVELLAIKKNFTLRVDRGLARSIINEGSNDYLKLTTPMFLGGLPVDPAQQAYKNWQIRNLTSFKGCMKEVWINHKLVDFGNAQRQQKITPGCALLEGEQQEEEDDEQDFMDETPHIKEEPVDPCLENKCRRGSRCVPNSNARDGYQCKCKHGQRGRYCDQGEGSTEPPTVTAASTCRKEQVREYYTENDCRSRQPLKYAKCVGGCGNQCCAAKIVRRRKVRMVCSNNRKYIKNLDIVRKCGCTKKCY
